Test results from the supplement of paper PMC3682954.
Where a name gives a salt, the structure may show the parent alone. ± gives the standard deviation of the averaged measurements. This is one part of the list. Single values are uncertain, as repeats are few or missing.

System: RAW 264.7
Assay: HMGB1-induced TNF-alpha production relative to HMGB1-stimulated control; higher = more TNF-alpha secretion (less inhibition)
Conditions: stimulus: HMGB1 5 ug/ml, 18 h
[1] = compound concentration: 1 ug/ml

SMILES	HMGB1-induced TNF-alpha production (compound concentration: 3 uM) [%]	HMGB1-induced TNF-alpha production [1] [%]
COc1cccc(-c2cc(=O)c3ccccc3o2)c1N	64.2	
CC(=O)c1ccc2c(c1)N(CCCN(C)C)c1ccccc1S2	81.3	
CC(=O)c1ccc2c(c1)N(CCCN(C)C)c1ccccc1S2 [Acetopromazine maleate salt]	96.6	
CN(C)CCOC(C)(c1ccccc1)c1ccccn1 (stereo not given) [Doxylamine succinate]	81.6 ± 6.9	
CN(C)CCOC(C)(c1ccccc1)c1ccccn1 (stereo not given)	96 ± 25	
Oc1c(I)cc(Cl)c2cccnc12 [Clioquinol]	97	
Oc1c(I)cc(Cl)c2cccnc12	80.8	
CC(C)(C#N)c1cc(Cn2cncn2)cc(C(C)(C)C#N)c1	107	
CC(C)(C#N)c1cc(Cn2cncn2)cc(C(C)(C)C#N)c1 [Anastrozole]	102 ± 8.7	
COC(=O)Nc1nc2cc(C(=O)c3ccccc3)ccc2[nH]1 [Mebendazole]	119	
COC(=O)Nc1nc2cc(C(=O)c3ccccc3)ccc2[nH]1 [Mebendazol]	98.4	
COC(=O)Nc1nc2cc(C(=O)c3ccccc3)ccc2[nH]1	112	
CC1(C)S[C@@H]2[C@H](NC(=O)[C@H](NC(=O)N3CCNC3=O)c3ccccc3)C(=O)N2[C@H]1C(=O)O [Azlocillin sodium salt]	110	
CC1(C)S[C@@H]2[C@H](NC(=O)[C@H](NC(=O)N3CCNC3=O)c3ccccc3)C(=O)N2[C@H]1C(=O)O	87.8	
CCCCCCCCCc1ccc(OCCOCCOCCOCCOCCOCCOCCOCCOCCO)cc1	85.8	
CC(C)c1ccc2oc3nc(N)c(C(=O)O)cc3c(=O)c2c1	98.6	
NC(=O)c1cc[n+](CC2=C(C(=O)O)N3C(=O)[C@@H](NC(=O)[C@@H](c4ccccc4)S(=O)(=O)[O-])[C@H]3SC2)cc1	93.5	
CCCCCCc1ccc(O)cc1O.Nc1c2ccccc2nc2ccccc12	53.1	
CN1CCc2cc(O)c(O)cc2C(c2ccccc2)C1 (stereo not given)	122	
Cc1cc2c(cc1S(N)(=O)=O)S(=O)(=O)CCC2	80.1	
Cc1cc2c(cc1S(N)(=O)=O)S(=O)(=O)CCC2 [Meticrane]	68.7	
Nc1nc2c(ncn2[C@@H]2O[C@H](CO)[C@@H](O)[C@H]2O)c(=O)[nH]1 [Guanosine]		73.3

SMILES	HMGB1-induced TNF-alpha production (compound concentration: 3 uM) [%]	HMGB1-induced TNF-alpha production [1] [%]
Clc1cnccn1 [2-Chloropyrazine]	118	
CN1C(C)(C)CCCC1(C)C [Pempidine tartrate]	109	
CN1C(C)(C)CCCC1(C)C	72.6	
Cc1onc(-c2c(Cl)cccc2Cl)c1C(=O)N[C@@H]1C(=O)N2[C@@H]1SC(C)(C)[C@@H]2C(=O)O	82.4	
Cc1onc(-c2c(Cl)cccc2Cl)c1C(=O)N[C@@H]1C(=O)N2[C@@H]1SC(C)(C)[C@@H]2C(=O)O [Dicloxacillin sodium salt]	58.2	
CN(C)/N=N/c1[nH]cnc1C(N)=O [Dacarbazine]	80.5 ± 27	
CN(C)/N=N/c1[nH]cnc1C(N)=O	85.3 ± 4.7	
CCCCCC[C@@H]([C@@H](C)O)n1cnc2c(N)ncnc21 [erythro-9-(2-Hydroxy-3-nonyl)adenine hydrochloride]	86	
C[N+](C)(C)CCCCCC[N+](C)(C)C [Hexamethonium dichloride]	86	
C[N+](C)(C)CCCCCC[N+](C)(C)C	76	
C[N+](C)(C)CCCCCC[N+](C)(C)C [Hexamethonium bromide]	89.3	
C[N+](C)(C)CCCCCC[N+](C)(C)C [Hexamethonium dibromide dihydrate]	72.4	
CC1C(=O)OC2C(O)C34C5CC(C(C)(C)C)C36C(OC(=O)C6O)OC4(C(=O)O5)C12O (stereo not given) [Ginkgolide B]		85.4
CCCCCCCCc1ccc(-c2ccc(C(=O)O)cc2)cc1	111	
CC[N+](C)(C)Cc1ccccc1Br	103	
CC[N+](C)(C)Cc1ccccc1Br [Bretylium tosylate]	103	
CC1CC(OC(=O)C(O)c2ccccc2)CC(C)(C)C1 (stereo not given)	95.7	
Cc1oncc1C(=O)Nc1ccc(C(F)(F)F)cc1 [Leflunomide]	100 ± 6.1	
COc1ccc(C(Cl)=C(c2ccc(OC)cc2)c2ccc(OC)cc2)cc1	71.7	
COc1ccc(C(Cl)=C(c2ccc(OC)cc2)c2ccc(OC)cc2)cc1 [Chlorotrianisene]	98.4	
O=C(O)c1cccnc1Nc1cccc(C(F)(F)F)c1 [Niflumic acid]	93.6 ± 22	
O=C(O)c1cccnc1Nc1cccc(C(F)(F)F)c1	79.4	

Part of the list above, with each value named:
Cc1onc(-c2c(Cl)cccc2Cl)c1C(=O)N[C@@H]1C(=O)N2[C@@H]1SC(C)(C)[C@@H]2C(=O)O [Dicloxacillin sodium salt]
  HMGB1-induced TNF-alpha production (compound concentration: 3 uM) [%]: 58.2
CC[N+](C)(C)Cc1ccccc1Br [Bretylium tosylate]
  HMGB1-induced TNF-alpha production (compound concentration: 3 uM) [%]: 103

The list continues.

SMILES	HMGB1-induced TNF-alpha production (compound concentration: 3 uM) [%]	HMGB1-induced TNF-alpha production [1] [%]
Cc1cn(C2C=CC(CO)O2)c(=O)[nH]c1=O (stereo not given) [2',3'-didehydro-3'-deoxythymidine]	77.8	
CC(CCc1ccccc1)NCC(O)c1ccc(O)c(C(N)=O)c1 (stereo not given) [Labetalol hydrochloride]	78.5 ± 22	
CC(CCc1ccccc1)NCC(O)c1ccc(O)c(C(N)=O)c1 (stereo not given)	75	
CCOC(=O)[C@H](CCc1ccccc1)N[C@@H](C)C(=O)N1Cc2ccccc2C[C@H]1C(=O)O	95.1	
CCOC(=O)[C@H](CCc1ccccc1)N[C@@H](C)C(=O)N1Cc2ccccc2C[C@H]1C(=O)O [Quinapril HCl]	111	
CCOC(=O)[C@H](CCc1ccccc1)N[C@@H](C)C(=O)N1Cc2ccccc2C[C@H]1C(=O)O [Quinapril]	92.3	
CN(C)CCCN1c2ccccc2Sc2ccccc21 [Promazine hydrochloride]	106 ± 1.7	
CN(C)CCCN1c2ccccc2Sc2ccccc21	70.3	
Cc1cc(C(C)(C)C)c(O)c(C)c1CC1=NCCN1 [Oxymetazoline]	86.5	
Cc1cc(C(C)(C)C)c(O)c(C)c1CC1=NCCN1 [Oxymetazoline hydrochloride]	90.1 ± 15	
Cc1cc(C(C)(C)C)c(O)c(C)c1CC1=NCCN1	96.8	
NS(=O)(=O)c1cc(C(=O)O)cc(N2CCCC2)c1Oc1ccccc1 [Piretanide]	114	
Nc1nc2c(ncn2[C@H]2C[C@H](O)[C@@H](CO)O2)c(=O)[nH]1 [2'-Deoxyguanosine hydrate]		75.7
COc1ccc([C@@H]2CC(=O)c3c(O)cc(O[C@@H]4O[C@H](CO[C@@H]5O[C@@H](C)[C@H](O)[C@@H](O)[C@H]5O)[C@@H](O)[C@H](O)[C@H]4O)cc3O2)cc1O [Hesperidin]	67.8	
COc1ccc([C@@H]2CC(=O)c3c(O)cc(O[C@@H]4O[C@H](CO[C@@H]5O[C@@H](C)[C@H](O)[C@@H](O)[C@H]5O)[C@@H](O)[C@H](O)[C@H]4O)cc3O2)cc1O [Hesperidin, 80%]		77.2
CC(C)(C(=O)O)c1ccc(C(O)CCCN2CCC(C(O)(c3ccccc3)c3ccccc3)CC2)cc1 (stereo not given)	74.5	
CC(C)(C(=O)O)c1ccc(C(O)CCCN2CCC(C(O)(c3ccccc3)c3ccccc3)CC2)cc1 (stereo not given) [Fexofenadine hydrochloride]	81.7	
CC(C)(C(=O)O)c1ccc(C(O)CCCN2CCC(C(O)(c3ccccc3)c3ccccc3)CC2)cc1 (stereo not given) [Fexofenadine HCl]	125	
CC(N)=NCCCC[C@H](N)C(=O)O [L-N6-(1-Iminoethyl)lysine hydrochloride]	106	
Cc1ccc(O)c(N=Nc2ccccc2)n1	113	
Cc1c(C)c2c(c(C)c1O)CCC(C)(COc1ccc(CC3SC(=O)NC3=O)cc1)O2 (stereo not given) [Troglitazone]	82.4 ± 3.3	
C[N+]1(C)[C@@H]2CC[C@H]1C[C@@H](OC(=O)C(O)c1ccccc1)C2 (stereo not given in full)	106	

SMILES	HMGB1-induced TNF-alpha production (compound concentration: 3 uM) [%]	HMGB1-induced TNF-alpha production [1] [%]
COC(c1ccccc1)(c1ccccc1)[C@H](Oc1nc(C)cc(C)n1)C(=O)O [Ambrisentan]	92.7	
COC(=O)C1=C(C)NC(C)=C(C(=O)OCCN2CCN(C(c3ccccc3)c3ccccc3)CC2)C1c1cccc([N+](=O)[O-])c1 (stereo not given) [Manidipine]	91.3	
COc1ccc2c(c1OC)C(=O)OC2C1c2c(cc3c(c2OC)OCO3)CCN1C [(S,R)-Noscapine]		80.5
COC(=O)[C@H]1[C@H]2C[C@H]3c4[nH]c5ccccc5c4CCN3C[C@@H]2CC[C@@H]1O [Corynanthine hydrochloride]		60.9
COC(=O)[C@H]1[C@H]2C[C@H]3c4[nH]c5ccccc5c4CCN3C[C@@H]2CC[C@@H]1O [Corynanthine]		77.1
CC(=O)Nc1ccccc1	87.7	
C[N+]1(C)[C@@H]2C[C@@H](OC(=O)C(O)(c3cccs3)c3cccs3)C[C@H]1[C@@H]1O[C@@H]12 [Tiotropium Bromide]	80.4	
CSc1ccc2c(c1)C(N1CCN(C)CC1)Cc1ccccc1S2 (stereo not given) [Methiothepin]	113	
CSc1ccc2c(c1)C(N1CCN(C)CC1)Cc1ccccc1S2 (stereo not given) [Methiothepin maleate]	72.2	
CSc1ccc2c(c1)C(N1CCN(C)CC1)Cc1ccccc1S2 (stereo not given)	76.3	
CSc1ccc2c(c1)C(N1CCN(C)CC1)Cc1ccccc1S2 (stereo not given) [Methiothepin mesylate]	97.9	
CC(C)(C)C(=O)Oc1ccc(S(=O)(=O)Nc2ccccc2C(=O)NCC(=O)O)cc1 [Sivelestat sodium salt hydrate]	115	
C[C@H]1COc2c(C3(N)CC3)c(F)cc3c(=O)c(C(=O)O)cn1c23	92.9	
C[C@H]1COc2c(C3(N)CC3)c(F)cc3c(=O)c(C(=O)O)cn1c23 [Pazufloxacin]	74.3	
CC(C(=O)O)c1ccc2c(c1)Cc1cccnc1O2 (stereo not given) [Pranoprofen]	107 ± 8.4	
CCCCCCC[N+](CC)(CC)CCCCc1ccc(Cl)cc1 [Clofilium tosylate]	81.8	
CNCCCC1c2ccccc2C=Cc2ccccc21 [Protriptyline hydrochloride]	100 ± 6	
CNCCCC1c2ccccc2C=Cc2ccccc21	70.7	
CCOC(=O)C1=C[C@@H](OC(CC)CC)[C@H](NC(C)=O)[C@@H](N)C1 [Oseltamivir]	83.3	
